The other results are listed elsewhere or left out.
What follows are targets tested with Cc1cc(Nc2cc(N3CCN(C)CC3)nc(Sc3ccc(NC(=O)C4CC4)cc3)n2)n[nH]1 [tozasertib] (assay: log2 fold change, soluble protein after heating vs DMSO (PISA); higher = thermal stabilisation; K562 lysate, 10 uM; active = over 0.2 and 3.5 SD of the protein, either way, in both replicates (recomputed)).
In short: (§1)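 Following dounce homogenisation of K562 pellets in PBS pH 7.4 with 1 mM MgCl2, crude extract at 1 mg/mL protein was incubated for 30 min with 10 μM compound. Aliquots were then heated for 3 min over 48°C-58°C and pooled, NP-40 was added to 0.5% at 4°C, and soluble protein was recovered as the supernatant at 21,000xg for 90 min. Channel-sum-equalised TMTpro 16plex LC-MS/MS quantified this protein. Each value, from duplicates, is a log-two fold change in thermal stability relative to solvent controls.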

The chains behind the UniProt entries cited, without tags or fusion partners. Where a name states a change or a piece, a line headed by the entry shows the natural chain unless it says otherwise.
UniProt Q96EB6: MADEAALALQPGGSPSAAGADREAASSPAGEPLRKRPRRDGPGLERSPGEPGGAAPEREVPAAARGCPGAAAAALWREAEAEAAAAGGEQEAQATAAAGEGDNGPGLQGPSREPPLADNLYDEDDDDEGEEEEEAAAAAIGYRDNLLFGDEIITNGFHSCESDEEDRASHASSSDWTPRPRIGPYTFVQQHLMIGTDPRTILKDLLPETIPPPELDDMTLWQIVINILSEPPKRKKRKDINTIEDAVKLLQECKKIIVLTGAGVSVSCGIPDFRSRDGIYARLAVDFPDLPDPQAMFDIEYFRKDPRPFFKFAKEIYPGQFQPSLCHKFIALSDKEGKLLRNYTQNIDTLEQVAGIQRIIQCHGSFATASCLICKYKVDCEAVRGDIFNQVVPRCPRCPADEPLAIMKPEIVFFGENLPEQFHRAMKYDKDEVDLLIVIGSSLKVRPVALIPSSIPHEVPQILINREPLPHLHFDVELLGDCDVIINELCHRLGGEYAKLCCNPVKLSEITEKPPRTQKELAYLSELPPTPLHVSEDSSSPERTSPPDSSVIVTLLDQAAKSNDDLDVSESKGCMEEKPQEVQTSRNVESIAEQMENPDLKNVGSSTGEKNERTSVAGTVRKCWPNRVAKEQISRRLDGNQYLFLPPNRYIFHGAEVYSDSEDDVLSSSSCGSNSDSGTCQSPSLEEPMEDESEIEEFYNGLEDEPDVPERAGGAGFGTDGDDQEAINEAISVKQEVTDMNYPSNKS
UniProt P34896: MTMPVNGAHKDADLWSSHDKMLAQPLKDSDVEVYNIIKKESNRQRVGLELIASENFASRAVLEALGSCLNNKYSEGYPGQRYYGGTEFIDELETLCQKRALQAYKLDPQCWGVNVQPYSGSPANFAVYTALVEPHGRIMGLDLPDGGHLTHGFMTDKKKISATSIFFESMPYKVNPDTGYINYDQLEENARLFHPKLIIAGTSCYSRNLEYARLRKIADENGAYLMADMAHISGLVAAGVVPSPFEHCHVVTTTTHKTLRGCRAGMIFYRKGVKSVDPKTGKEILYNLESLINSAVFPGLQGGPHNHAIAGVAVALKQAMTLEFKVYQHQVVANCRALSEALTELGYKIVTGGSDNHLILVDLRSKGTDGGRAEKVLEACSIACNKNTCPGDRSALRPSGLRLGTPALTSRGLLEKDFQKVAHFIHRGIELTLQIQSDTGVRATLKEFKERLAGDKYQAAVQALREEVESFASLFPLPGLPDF
UniProt Q9NP31, whole entry, looked up: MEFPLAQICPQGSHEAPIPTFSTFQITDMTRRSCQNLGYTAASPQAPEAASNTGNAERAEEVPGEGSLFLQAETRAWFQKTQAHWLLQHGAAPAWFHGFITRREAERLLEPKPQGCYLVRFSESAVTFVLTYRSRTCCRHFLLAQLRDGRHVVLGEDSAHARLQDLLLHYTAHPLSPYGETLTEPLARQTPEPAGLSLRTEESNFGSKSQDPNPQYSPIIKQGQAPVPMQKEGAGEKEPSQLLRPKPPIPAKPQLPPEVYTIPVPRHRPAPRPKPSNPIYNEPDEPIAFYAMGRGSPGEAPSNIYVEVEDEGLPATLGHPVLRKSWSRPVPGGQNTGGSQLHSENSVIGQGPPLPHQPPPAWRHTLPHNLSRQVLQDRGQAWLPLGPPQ
UniProt O95562: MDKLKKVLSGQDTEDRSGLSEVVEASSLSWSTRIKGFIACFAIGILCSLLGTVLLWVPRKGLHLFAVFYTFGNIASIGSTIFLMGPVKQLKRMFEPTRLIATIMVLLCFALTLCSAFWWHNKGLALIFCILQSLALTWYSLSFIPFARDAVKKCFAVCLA
UniProt Q14493, whole entry, looked up: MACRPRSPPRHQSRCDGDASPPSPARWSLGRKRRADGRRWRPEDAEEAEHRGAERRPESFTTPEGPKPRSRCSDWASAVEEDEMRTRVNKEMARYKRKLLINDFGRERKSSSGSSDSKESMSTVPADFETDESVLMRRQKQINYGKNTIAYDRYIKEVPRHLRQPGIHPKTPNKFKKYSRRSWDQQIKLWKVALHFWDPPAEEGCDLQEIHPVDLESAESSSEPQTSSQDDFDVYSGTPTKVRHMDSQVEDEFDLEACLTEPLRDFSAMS
UniProt P34897: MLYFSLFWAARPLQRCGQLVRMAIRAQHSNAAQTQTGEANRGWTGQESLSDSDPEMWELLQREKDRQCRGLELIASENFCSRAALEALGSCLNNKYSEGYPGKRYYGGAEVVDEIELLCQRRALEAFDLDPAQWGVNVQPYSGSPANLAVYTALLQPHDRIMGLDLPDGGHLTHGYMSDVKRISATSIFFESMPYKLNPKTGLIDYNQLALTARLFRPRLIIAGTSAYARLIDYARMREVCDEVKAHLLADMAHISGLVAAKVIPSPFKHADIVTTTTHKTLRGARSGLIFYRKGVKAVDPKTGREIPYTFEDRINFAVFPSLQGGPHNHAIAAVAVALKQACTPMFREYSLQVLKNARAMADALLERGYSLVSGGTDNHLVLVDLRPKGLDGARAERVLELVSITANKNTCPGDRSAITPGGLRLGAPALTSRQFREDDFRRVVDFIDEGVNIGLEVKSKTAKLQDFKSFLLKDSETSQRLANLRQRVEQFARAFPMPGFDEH
UniProt P58004: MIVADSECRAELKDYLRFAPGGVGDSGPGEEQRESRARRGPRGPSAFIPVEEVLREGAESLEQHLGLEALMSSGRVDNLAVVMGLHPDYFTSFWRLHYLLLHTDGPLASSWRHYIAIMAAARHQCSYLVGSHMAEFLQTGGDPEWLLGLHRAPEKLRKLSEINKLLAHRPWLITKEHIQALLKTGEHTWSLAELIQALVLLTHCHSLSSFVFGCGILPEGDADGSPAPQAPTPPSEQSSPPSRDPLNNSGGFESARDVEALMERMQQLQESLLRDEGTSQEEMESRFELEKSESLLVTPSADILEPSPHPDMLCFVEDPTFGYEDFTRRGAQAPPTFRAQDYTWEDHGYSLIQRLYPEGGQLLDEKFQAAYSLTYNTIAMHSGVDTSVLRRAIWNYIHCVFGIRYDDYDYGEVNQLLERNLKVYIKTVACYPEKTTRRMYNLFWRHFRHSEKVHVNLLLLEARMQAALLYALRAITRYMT
UniProt P49281: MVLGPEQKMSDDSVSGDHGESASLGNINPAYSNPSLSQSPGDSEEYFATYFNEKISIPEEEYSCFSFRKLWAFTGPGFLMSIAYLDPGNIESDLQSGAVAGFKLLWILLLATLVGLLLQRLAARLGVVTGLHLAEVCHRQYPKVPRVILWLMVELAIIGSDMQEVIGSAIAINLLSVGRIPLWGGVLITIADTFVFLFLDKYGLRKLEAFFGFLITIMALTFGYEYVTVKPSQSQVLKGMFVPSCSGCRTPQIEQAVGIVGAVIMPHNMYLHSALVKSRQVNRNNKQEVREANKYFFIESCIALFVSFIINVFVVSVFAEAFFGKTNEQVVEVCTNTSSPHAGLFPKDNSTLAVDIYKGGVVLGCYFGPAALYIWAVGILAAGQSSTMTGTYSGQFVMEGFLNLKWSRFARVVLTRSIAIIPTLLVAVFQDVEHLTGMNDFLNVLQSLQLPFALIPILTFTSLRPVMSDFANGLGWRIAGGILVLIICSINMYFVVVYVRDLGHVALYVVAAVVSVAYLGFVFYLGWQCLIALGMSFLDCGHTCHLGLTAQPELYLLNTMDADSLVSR
UniProt O75563, whole entry, looked up: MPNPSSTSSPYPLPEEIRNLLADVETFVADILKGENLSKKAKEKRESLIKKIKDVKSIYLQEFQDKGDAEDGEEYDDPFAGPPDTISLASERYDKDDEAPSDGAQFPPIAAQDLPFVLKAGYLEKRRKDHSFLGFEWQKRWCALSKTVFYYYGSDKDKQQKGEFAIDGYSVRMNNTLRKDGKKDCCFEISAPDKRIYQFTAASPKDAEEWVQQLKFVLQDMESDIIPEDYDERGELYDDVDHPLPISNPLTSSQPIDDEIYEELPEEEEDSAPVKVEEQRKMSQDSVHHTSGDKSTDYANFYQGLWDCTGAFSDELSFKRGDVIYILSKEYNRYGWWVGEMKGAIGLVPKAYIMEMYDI
UniProt Q9H299: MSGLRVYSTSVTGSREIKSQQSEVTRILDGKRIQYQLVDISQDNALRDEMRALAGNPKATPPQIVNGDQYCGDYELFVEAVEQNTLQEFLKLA
UniProt Q9UJC5: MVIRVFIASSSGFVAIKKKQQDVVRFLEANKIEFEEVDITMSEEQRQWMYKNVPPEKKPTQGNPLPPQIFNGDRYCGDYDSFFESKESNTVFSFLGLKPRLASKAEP
UniProt Q99961: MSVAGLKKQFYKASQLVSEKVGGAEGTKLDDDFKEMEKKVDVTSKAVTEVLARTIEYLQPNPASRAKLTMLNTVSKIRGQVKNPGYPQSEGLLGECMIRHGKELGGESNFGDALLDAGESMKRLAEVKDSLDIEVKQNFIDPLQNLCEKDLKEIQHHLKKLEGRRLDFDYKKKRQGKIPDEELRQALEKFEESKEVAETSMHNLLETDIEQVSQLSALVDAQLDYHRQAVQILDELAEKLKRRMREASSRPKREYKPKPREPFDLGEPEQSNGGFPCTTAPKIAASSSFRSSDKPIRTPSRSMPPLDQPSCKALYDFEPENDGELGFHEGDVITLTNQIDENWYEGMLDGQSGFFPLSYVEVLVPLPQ
UniProt Q9NXA8: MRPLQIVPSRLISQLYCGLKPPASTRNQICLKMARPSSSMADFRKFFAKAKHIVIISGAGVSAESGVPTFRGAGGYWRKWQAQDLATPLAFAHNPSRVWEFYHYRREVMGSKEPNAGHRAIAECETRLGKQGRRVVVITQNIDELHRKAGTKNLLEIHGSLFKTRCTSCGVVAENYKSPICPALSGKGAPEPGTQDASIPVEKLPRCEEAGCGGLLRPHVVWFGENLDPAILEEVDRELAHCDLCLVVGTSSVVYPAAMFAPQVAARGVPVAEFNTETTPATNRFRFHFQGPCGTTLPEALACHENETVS
UniProt Q8NC51: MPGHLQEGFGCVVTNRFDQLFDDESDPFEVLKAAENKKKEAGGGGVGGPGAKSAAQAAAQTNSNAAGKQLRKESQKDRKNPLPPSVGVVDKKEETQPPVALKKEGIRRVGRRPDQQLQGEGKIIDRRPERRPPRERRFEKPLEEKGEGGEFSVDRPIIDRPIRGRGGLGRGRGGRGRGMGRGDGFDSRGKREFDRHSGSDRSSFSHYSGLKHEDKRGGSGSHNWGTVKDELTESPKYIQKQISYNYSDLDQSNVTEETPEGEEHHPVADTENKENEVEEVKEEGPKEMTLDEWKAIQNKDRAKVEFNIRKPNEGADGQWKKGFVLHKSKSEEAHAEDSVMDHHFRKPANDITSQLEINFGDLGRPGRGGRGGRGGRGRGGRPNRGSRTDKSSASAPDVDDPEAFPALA
UniProt Q12872: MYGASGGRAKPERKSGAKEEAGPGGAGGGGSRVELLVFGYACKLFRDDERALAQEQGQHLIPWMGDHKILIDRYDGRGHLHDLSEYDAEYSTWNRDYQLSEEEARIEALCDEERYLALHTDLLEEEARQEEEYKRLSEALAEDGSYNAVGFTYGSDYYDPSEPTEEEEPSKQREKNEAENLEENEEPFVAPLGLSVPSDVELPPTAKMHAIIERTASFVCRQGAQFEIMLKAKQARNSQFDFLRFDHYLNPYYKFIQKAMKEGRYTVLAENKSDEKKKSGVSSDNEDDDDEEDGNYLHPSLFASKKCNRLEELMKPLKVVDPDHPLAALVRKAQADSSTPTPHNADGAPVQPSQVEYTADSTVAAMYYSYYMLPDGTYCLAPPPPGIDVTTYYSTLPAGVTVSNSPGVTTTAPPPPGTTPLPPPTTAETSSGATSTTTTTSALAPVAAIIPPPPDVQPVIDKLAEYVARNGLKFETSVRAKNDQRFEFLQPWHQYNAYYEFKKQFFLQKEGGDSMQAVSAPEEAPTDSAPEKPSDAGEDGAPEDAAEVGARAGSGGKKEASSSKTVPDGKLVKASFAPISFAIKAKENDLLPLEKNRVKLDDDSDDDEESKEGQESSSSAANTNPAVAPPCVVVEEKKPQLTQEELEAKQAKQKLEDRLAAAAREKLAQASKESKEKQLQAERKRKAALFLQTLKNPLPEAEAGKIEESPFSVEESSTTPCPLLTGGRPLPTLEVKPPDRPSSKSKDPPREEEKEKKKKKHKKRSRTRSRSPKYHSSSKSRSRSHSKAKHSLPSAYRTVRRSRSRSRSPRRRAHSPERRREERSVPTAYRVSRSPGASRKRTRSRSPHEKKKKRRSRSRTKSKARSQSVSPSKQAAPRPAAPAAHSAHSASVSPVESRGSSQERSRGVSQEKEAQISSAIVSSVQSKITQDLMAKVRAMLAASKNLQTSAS
UniProt Q8IXJ6: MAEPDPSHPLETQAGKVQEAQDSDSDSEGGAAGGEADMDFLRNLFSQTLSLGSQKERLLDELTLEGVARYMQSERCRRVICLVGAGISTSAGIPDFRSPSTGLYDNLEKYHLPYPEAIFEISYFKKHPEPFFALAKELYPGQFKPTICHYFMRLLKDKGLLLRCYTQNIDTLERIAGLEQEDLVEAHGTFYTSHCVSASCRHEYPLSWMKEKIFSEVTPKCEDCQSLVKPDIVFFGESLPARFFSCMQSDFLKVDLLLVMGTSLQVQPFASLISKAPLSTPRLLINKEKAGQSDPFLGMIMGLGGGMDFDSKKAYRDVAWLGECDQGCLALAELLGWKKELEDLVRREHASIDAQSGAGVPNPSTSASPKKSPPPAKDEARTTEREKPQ

Target	log2 fold change
SERPINB6, A0A087X1N8	inactive: -0.04
SIRT1 (UniProt Q96EB6)	inactive: 0.004
SFPQ (UniProt P23246)	inactive: -0.012
SH3BP5 (UniProt O60239)	inactive: -0.008
SHMT1 (UniProt P34896)	inactive: -0.01
SH2D2A isoform 2 (UniProt Q9NP31)	inactive: 0.177
SFT2D2 (UniProt O95562)	inactive: 0.058
SLBP (UniProt Q14493)	inactive: 0.027
SHMT2 (UniProt P34897)	inactive: 0.004

The targets below were run with Cc1ccc(-n2nc(C(C)(C)C)cc2NC(=O)Nc2ccc(OCCN3CCOCC3)c3ccccc23)cc1 [doramapimod] in the same assay as above.
In short: as §1

Target	log2 fold change
SESN2 (UniProt P58004)	inactive: -0.031
SLC11A2 isoform 3 (UniProt P49281)	inactive: -0.018
SERPINH1 (UniProt P50454)	inactive: -0.023
SKAP2 (UniProt O75563)	inactive: 0.027
SH3BGRL3 (UniProt Q9H299)	inactive: 0.008
SLAIN2 (UniProt Q9P270)	inactive: 0.012
SH3BGRL2 (UniProt Q9UJC5)	inactive: 0.021
SH3GL1 (UniProt Q99961)	inactive: 0.025
SIRT5 (UniProt Q9NXA8)	inactive: -0.03
SERBP1 (UniProt Q8NC51)	inactive: -0.045
SFSWAP isoform 2 (UniProt Q12872)	inactive: 0.064
SERPINB9 (UniProt P50453)	inactive: -0.009
SIRT2 (UniProt Q8IXJ6)	inactive: 0.082
SF3B1 (UniProt O75533)	inactive: 0.04

Quoted at random: two records from the list
Target	log2 fold change
SH3BGRL3 (UniProt Q9H299)	inactive: 0.008
SLC11A2 isoform 3 (UniProt P49281)	inactive: -0.018
